Several values for one entry are separate records, joined by “and”; a condition that tells them apart may be missing. Identical values can stand only once. This list holds what a sample rich in hits left over. Activity calls are given as the source filed them. Calls come from the whole dose curve; as a rule, active = well fitted activation curve with a large enough effect; inconclusive = small, poorly fitted or top-dose-only effect, or another doubt; inactive = no such curve, though single readings can be large or run the other way.
What follows are compounds tested against Rap guanine nucleotide exchange factor 4 (Homo sapiens) (UniProt Q8WZA2) (assay: Validation qHTS for agonist of cAMP-regulated guanine nucleotide exchange factor 4 (EPAC2)). Conditions: EPAC2 Rap1B BODIPY-GDP exchange, fluorescence; stronger effect = higher value.
Excerpt: Principle Investigator: Xiaodong Cheng Ph.D.
The University of Texas Medical Branch, […], TX
In multi-cellular eukaryotic organisms, the effects of cAMP are transduced by two ubiquitously-expressed intracellular cAMP receptors, the classic protein kinase A/cAMP-dependent protein kinase (PKA/cAPK) and the more recently discovered exchange protein directly activated by cAMP/cAMP-regulated guanine nucleotide exchange factor (EPAC/cAMP-GEF). Both PKA and EPAC are ubiquitously expressed in all tissues, and an increase in intracellular cAMP levels will lead to the activation of both PKA and EPAC. Therefore, careful dissections of the individual role and relative contribution of EPAC and PKA within the overall cAMP signaling in various model systems are critical for further elucidating the mechanism of cAMP signaling. To date no EPAC-specific antagonists and agonist, as well as isoform-specific agonists have been reported, and developing EPAC-specific pharmacological probes to determine the physiological functions that EPAC play in the overall cAMP-mediated signaling remains a major challenge within the research field. […]
This qHTS will be used to screen the Molecular Libraries Small Molecule Repository (MLSMR) as a concentration-titration series using the NCGC unique quantitative screening (qHTS) platform to find activators for EPAC1. […] Activators are identified by monitoring the change in fluorescence signal as the exchanged free BODIPY-GDP has a reduced fluorescence compared to Rap1-bound BODIPY-GDP. […]
Briefly, three uL of reagents (100 nM EPAC2, 250 nM RAP1B-BODIPY-GDP, 50 uM GDP) were dispensed into a 1536-well Greiner black solid-bottom medium binding assay plate. […] The assay plates were read at 5 minute intervals for 30 minutes in the ViewLux plate reader using 480nm excitation and 540nm emission filters. […]
% is set by controls: 0 for no effect and ±100 for the full control effect.
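Note: exchange makes BODIPY-GDP fluorescence drop when released from Rap1B; series mostly up to about 150 µM.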

Sequences of proteins named here, by UniProt entry; tags and fusion partners are left off. A change or cut given only in a name is not applied to a line headed by its entry.
UniProt Q8WZA2: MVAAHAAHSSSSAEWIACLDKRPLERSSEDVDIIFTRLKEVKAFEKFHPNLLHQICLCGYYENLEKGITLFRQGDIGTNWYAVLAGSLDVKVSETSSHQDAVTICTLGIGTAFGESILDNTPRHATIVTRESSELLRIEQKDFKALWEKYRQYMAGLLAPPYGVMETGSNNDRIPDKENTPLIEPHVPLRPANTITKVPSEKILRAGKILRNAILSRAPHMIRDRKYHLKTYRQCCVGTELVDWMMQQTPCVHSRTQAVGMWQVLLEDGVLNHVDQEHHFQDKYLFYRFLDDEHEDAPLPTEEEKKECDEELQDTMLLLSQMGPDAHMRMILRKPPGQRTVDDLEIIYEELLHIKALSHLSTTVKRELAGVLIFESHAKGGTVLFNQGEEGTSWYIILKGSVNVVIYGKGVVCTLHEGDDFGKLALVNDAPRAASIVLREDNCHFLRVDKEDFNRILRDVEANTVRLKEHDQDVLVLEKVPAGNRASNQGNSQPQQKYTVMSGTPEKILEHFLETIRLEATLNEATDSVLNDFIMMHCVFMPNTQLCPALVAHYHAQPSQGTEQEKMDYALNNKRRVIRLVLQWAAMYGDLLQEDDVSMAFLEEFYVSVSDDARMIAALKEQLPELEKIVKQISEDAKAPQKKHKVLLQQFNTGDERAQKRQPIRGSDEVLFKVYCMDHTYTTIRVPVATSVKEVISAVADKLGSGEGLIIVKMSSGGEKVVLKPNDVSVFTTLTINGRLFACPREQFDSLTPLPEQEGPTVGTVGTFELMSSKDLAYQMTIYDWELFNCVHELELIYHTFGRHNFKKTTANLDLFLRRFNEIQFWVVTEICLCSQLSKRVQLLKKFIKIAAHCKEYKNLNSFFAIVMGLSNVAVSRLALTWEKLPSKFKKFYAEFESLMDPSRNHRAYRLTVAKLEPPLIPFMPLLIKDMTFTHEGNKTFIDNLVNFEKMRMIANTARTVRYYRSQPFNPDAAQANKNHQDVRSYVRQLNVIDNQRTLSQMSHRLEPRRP

activation, inactive:
Cc1c(C(=O)NN2CCCCC2)nn(-c2ccc(Cl)cc2Cl)c1-c1ccc(I)cc1 4.09%, Cc1cccc(CCN2CCC(C(=O)c3ccc(NS(C)(=O)=O)cc3)CC2)n1 -23.1% and 4.54% and -10.4%, Nc1ccc(N)c([N+](=O)[O-])c1 -21.7%

Source: PubChem BioAssay AID1645887 (National Center for Advancing Translational Sciences (NCATS), 2021)
